{"source": "patent US10457654B2", "about": "(GENENTECH, INC., priority 2017, dated 2019)", "origin": "cited, not measured here", "conditions": "administered topically (Lidoderm patch); NDA 20-612; cited from earlier work"}
{"smiles": "CCN(CC)CC(=O)Nc1c(C)cccc1C", "note": "[lidocaine]", "values": [{"measurement": "plasma concentrations", "value": "about 1 μM"}]}
